Experimental findings from patent US20190233486A1 (ACCELERON PHARMA, published 2019) are described below.

The chains behind the UniProt entries cited, without tags or fusion partners. Where a name states a change or a piece, a line headed by the entry shows the natural chain unless it says otherwise.
UniProt P27037: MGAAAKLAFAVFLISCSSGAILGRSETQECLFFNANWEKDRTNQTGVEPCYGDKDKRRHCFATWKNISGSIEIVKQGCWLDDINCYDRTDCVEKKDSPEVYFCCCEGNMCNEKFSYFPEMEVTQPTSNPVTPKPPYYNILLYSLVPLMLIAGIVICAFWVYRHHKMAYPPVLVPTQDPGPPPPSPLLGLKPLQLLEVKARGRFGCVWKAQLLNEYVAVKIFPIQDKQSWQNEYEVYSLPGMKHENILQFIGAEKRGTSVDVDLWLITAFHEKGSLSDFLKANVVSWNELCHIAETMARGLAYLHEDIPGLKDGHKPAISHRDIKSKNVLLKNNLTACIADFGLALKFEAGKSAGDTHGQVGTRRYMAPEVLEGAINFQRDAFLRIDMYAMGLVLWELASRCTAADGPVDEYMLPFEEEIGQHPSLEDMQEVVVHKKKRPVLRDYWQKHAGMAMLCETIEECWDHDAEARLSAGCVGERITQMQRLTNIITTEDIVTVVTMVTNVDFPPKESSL

Numbering of substitutions follows the chain as printed. In names and notes the source's numbering stands. No constants are given. Whether binding was seen depends on the method and setting. Some entries that bind do so weakly or less than the wild type. For some of these results: Tags and fused reporters may be left off the sequences shown.

The target in experiment [1] is T1, GDF11 (UniProt O95390 299-407).
T1 construct: also called growth and differentiation factor-11; BMP11
T1 sequence (looked up): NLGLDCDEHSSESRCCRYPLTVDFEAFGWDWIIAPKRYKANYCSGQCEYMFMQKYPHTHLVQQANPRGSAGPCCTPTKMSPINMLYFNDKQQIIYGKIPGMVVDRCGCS
Put plainly: Biacore SPR; ligand amine-coupled to CM5 chip, receptor-Fc injected.

For experiment [2], the target named is T1, GDF11. Put plainly: Biacore SPR; ligand coupled, receptor-Fc flowed over; legend: +++++ = ~40x increased binding.
The target in experiment [3] is T1, GDF11. The experiment can be described thus: Biacore SPR; ligand coupled, receptor-Fc flowed over; legend: - = ~1/2 WT binding.

On to “ActRIIA-mFc (from UniProt P27037 21-135) (Fc fusion)”, for which, in the experiment with GDF11 [1], the binding result is recorded as “binds”.

B1: Soluble ActRIIB-Fc variant K74A (second Biacore table of Example 12) (Fc fusion, UniProt Q13705 19-119, looked up, not shown: a dimerising Fc or GST)
chain: SGRGEAETRECIYYNANWELERTNQSGLERCEGEQDKRLHCYASWANSSGTIELVAKGCWLDDFNCYDRQECVATEENPQVYFCCCEGNFCNERFTHLPEA
Consider B1, for which the binding result with GDF11 [2] is on record as “binds”.

B2: Soluble ActRIIB-Fc variant F82A (Fc fusion, UniProt Q13705 19-119, looked up, not shown: a dimerising Fc or GST)
chain: B1 chain with A56K, F64A
For the molecule B2, in the experiment with GDF11 [3], the binding entry is listed as “binds”.

B3: Soluble ActRIIB-Fc variant R40A (Fc fusion, UniProt Q13705 19-119, looked up, not shown: a dimerising Fc or GST)
chain: B1 chain with R22A, A56K
For the molecule B3, the binding result with GDF11 [3] is listed as “binds”.
